Test results: paper PMC9455994
No constants are given. Whether binding was seen depends on the method and setting. For part of these data: Binding seen in cells or lysates may run through a third protein. Some results given as binding are weak or reduced against the parent protein; the word gives no strength. For part of these data: Sequences can lack the tags named with a protein.

The chains behind the UniProt entries cited, without tags or fusion partners. Where a name states a change or a piece, a line headed by the entry shows the natural chain unless it says otherwise.
UniProt Q91WD5: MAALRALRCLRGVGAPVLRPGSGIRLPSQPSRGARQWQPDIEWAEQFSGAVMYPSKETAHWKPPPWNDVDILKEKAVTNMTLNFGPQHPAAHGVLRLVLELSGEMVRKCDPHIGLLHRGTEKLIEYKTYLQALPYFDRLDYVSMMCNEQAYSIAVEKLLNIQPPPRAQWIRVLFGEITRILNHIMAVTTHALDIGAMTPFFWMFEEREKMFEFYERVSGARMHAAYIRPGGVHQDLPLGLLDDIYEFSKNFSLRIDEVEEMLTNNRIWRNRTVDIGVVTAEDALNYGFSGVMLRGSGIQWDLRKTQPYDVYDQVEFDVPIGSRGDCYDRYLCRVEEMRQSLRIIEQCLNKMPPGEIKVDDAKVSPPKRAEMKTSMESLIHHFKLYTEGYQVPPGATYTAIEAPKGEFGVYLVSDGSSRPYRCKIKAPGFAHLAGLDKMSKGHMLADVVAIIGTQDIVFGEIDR

Assays:
GFP-tagged Islr = target: T1, GFP-tagged Islr (UniProt Q6GU68); assay: co-IP; reciprocal co-IP from transfected HEK293T cells extracted with IP buffer; total protein immunoprecipitated with Islr or Ndufs2 antibody and protein A/G beads; immunoblotting
T1 sequence: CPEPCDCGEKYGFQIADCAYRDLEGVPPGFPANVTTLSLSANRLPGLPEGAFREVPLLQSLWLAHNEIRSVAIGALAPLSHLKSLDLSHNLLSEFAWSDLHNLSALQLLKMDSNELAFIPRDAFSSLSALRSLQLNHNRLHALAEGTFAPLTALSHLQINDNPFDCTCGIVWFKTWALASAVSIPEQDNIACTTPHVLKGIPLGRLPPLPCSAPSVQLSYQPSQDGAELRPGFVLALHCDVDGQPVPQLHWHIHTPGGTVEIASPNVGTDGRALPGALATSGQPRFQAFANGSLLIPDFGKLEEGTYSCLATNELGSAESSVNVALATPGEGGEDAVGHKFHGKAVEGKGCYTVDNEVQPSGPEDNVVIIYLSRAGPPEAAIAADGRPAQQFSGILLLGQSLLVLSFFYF

[1] = target: T2, Immunoglobulin superfamily containing leucine-rich repeat (Islr), pGBKT7-Islr (UniProt Q6GU68); assay: two-hybrid; Y2HGold cells cotransformed with pGBKT7-Islr and pGADT7-Ndufs2, plated on QDO/X/A plates; blue colour = positive interaction
T2 sequence: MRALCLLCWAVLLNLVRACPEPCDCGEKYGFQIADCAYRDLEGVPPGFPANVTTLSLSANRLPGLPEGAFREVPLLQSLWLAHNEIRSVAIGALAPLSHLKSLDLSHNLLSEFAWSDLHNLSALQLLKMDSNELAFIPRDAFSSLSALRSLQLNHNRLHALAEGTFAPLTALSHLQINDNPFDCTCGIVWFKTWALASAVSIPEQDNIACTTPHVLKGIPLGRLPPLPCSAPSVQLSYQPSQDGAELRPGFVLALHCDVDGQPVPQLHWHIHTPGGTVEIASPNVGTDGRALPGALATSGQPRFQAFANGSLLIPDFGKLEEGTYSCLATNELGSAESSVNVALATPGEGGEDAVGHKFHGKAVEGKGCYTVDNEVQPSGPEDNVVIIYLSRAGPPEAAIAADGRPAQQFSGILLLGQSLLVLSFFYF

GFP-tagged Ndufs2 = GFP-tagged Ndufs2 (UniProt Q91WD5); assay: co-IP; reciprocal co-IP from transfected HEK293T cells extracted with IP buffer; total protein immunoprecipitated with Islr or Ndufs2 antibody and protein A/G beads; immunoblotting

GFP-tagged Ndufs2 (from UniProt Q91WD5 34-463)
binding (GFP-tagged Islr): binds

NADH: Ubiquinone Oxidoreductase Core Subunit S2 (Ndufs2), pGADT7-Ndufs2 (from UniProt Q91WD5 1-463)
binding [1]: binds

B1: GFP-tagged Islr (protein, UniProt Q6GU68 19-428)
chain: T1 sequence
binding (GFP-tagged Ndufs2): binds
